Data: publication PMC11832210
Results are given in words; binding and its absence hold for the method and conditions named. In cells and extracts the contact can be indirect. Some entries that bind do so weakly or less than the wild type.

Chains of the proteins cited; added tags and fusions are not shown.
UniProt Q9D8S3: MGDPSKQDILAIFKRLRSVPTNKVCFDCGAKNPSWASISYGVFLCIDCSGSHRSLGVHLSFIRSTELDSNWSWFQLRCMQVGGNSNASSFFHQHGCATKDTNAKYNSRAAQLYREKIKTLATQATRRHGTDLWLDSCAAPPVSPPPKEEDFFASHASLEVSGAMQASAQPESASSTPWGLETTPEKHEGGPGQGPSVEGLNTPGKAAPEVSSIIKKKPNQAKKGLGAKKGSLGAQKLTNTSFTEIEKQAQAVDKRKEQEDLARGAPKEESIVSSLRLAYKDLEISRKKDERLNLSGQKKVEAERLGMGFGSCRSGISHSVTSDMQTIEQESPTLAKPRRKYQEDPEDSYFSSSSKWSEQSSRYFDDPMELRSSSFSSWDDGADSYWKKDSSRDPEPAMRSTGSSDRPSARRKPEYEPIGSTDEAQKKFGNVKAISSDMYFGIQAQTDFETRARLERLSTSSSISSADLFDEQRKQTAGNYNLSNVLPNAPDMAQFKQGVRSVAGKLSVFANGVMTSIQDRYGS

Target: ADP ribosylation factor GTPase activating protein 3 (ArfGAP3) (mouse (endogenous in C2C12)) (UniProt Q9D8S3)
Assay: co-IP; antibody against ArfGAP3 on C2C12 myoblasts with or without 20 g/L D-gal treatment; products immunoblotted for ArfGAP3 and Rab5a

B1: Rab5a (protein, UniProt Q9CQD1 1-215)
chain: MANRGATRPNGPNTGNKICQFKLVLLGESAVGKSSLVLRFVKGQFHEFQESTIGAAFLTQTVCLDDTTVKFEIWDTAGQERYHSLAPMYYRGAQAAIVVYDITNEESFARAKNWVKELQRQASPNIVIALSGNKADLANKRAVDFQEAQSYADDNSLLFMETSAKTSMNVNEIFMAIAKKLPKNEPQNPGANSARGRGVDLTEPAQPARSQCCSN
binding: binds
